Earlier results in patent US20220313659A1, “Methods for Increasing the Bioavailability of OTC and Pharmaceutical Drugs” (LOCUS IP COMPANY, LLC, priority 2019, published 2022).
Some results were stated once for a whole list of compounds, not compound by compound.

Details: room temperature

SMILES: C[C@]12CC[C@H]3[C@@H](CCC4=CC(=O)CC[C@@]43C)[C@@H]1CC[C@@H]2O [testosterone]
- maximum solubility in water: less than 10 mg/ml
